Results are given in words; binding and its absence hold for the method and conditions named. Some entries that bind do so weakly or less than the wild type.
Molecular target: T1, PD-L2
T1 sequence: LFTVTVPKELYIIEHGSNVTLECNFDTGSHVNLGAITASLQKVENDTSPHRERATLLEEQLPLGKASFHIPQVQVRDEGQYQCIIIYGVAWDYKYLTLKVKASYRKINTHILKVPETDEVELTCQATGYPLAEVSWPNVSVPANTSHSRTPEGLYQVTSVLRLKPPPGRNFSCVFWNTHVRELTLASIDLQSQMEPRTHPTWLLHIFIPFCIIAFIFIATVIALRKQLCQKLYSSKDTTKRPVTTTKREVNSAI
Assay: cell-surface binding assay: fluorescently labeled query protein on cells transiently expressing the target, fluorescence imaging, normalized fluorescence intensity

Chains of the proteins cited; added tags and fusions are not shown. Lines headed by an entry give the natural chain unless they say otherwise; changes in a name come on top.
UniProt Q9NZQ7: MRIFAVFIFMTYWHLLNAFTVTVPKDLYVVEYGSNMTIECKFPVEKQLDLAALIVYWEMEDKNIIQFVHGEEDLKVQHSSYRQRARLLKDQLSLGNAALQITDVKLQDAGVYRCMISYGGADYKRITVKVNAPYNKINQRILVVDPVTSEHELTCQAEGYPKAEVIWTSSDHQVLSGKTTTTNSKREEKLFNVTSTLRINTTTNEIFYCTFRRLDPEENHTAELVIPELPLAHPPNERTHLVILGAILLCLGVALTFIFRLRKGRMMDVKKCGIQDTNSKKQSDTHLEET

PD-L1/CD274 recombinant biotinylated ectodomain tetramerized with fluorescent streptavidin (from UniProt Q9NZQ7 19-238; P22629 37-163) (ligand)
binding: binds
